In US5945507A, “Antimicrobial peptides” (University of Pittsburgh, priority 1997, dated 1999):
Where two headings read alike, the source gives them in different places. At least one peptide structure holds a part that was inferred or is arguable (an end, a ring closure or a residue). Bridge positions count the residues as written; N and C are the ends. Ends that are not written are not given here. I, II: the chains in the order shown.

Assays:
S. aureus [1] = format: cell-based, Staphylococcus aureus
Procedure: Bacterial lysis assay. Bacterial lysis assays were conducted in a manner similar to that described previously (Lehrer, R. I., M. E. Selsted, D. Szklarek, and F. J. 1983. Infect. Immun. 42:10-14, 1983; Miller, M. A., R. F. Garry, J. M. Jaynes, and R. C. Montelaro, AIDS Res Hum Retroviruses 7:511-519, 1991). Bacterial suspensions were cultured in Luria Broth to mid-log growth phase and washed by several cycles of centrifugation and resuspension in 10 mM phosphate buffer. The A600 of the suspension was adjusted with 10 mM phosphate buffer such that, upon dilution, 5-10×10^5 CFU/ml would be treated in the assay. Bacteria were incubated with two-fold dilutions of peptides (32-0.1 μM in 96-well plates in 10 mM phosphate buffer, pH 7.2, for 1 hour. Ten-fold dilutions were performed to a dilution of 1:1000; a 100-μl aliquot from each condition was plated on tryptic soy agar (Difco, Detroit, Mich.) and the plates were incubated overnight. Colonies of surviving bacteria (colony-forming units) were counted and compared to untreated controls to determine the amount of peptide-induced killing under each condition. Log killing is defined as the log of the ratio of CFUs present before and after treatment with peptide. Complete killing is indicated where there were zero colonies per 100-μl aliquot of undiluted bacteria-peptide mixture.
Calculation of MBC. […] The minimal bactericidal concentration, MBC, is the peptide concentration at which 99.9% (3 logs) killing is achieved (Pearson et al., Antimicrob. Agents Chemother. 18:699-708, 1980). The MBC50 is the peptide concentration at which 50% killing is achieved.

S. aureus [2] = experiment: Kinetics of bacterial killing, S. aureus; format: cell-based, Staphylococcus aureus; details: kinetic assay; FIG. 5
Procedure: Kinetics of Bacterial Killing. The time course of the cytolytic activity of a peptide was determined by a modification of the above procedure, where a volume of appropriately diluted bacteria was treated with 1-10 μM peptide; aliquots of this mixture were removed every 10 seconds and diluted 1:2 in 2× Luria Broth; each resulting suspension was subsequently plated on agar as described above. The number of colonies visible upon incubation for each time point was used to calculate a rate of killing by the peptide.

S. marcescens = experiment: Bacterial lysis assay / MBC against S. marcescens; format: cell-based, Serratia marcescens
[3] = tested on: Vancomycin-resistant E. faecalis; experiment: Bacterial lysis assay / MBC against vancomycin-resistant E. faecalis; format: cell-based, Enterococcus faecalis
[4] = tested on: Methicillin-resistant S. aureus; experiment: Bacterial lysis assay / MBC against methicillin-resistant S. aureus; format: cell-based, Staphylococcus aureus
E. faecalis = experiment: Bacterial lysis assay / MBC against E. faecalis; format: cell-based, Enterococcus faecalis
P. aeruginosa = experiment: Bacterial lysis assay / MBC against P. aeruginosa; format: cell-based, Pseudomonas aeruginosa
[5] = Table 5, S. aureus, 99.9% reduction of CFU/ml
[6] = Table 8, cysteine substitution analogs, 50% reduction of CFU/ml, in µM
[7] = Table 8, cysteine substitution analogs, 99.9% reduction of CFU/ml
[8] = Table 5, 50% reduction of CFU/ml
[9] = Table 5, 99.9% reduction of CFU/ml

“GIGKFLHSAKKFGKAFVGEIMNS [magainin 2, reference compound]” was tested. Which “reduction of CFU/ml” value (S. aureus [1]; S. aureus, one hour, 10 μM peptide, FIG. 1) did it give?
Its value is “about 90%”.

And the MBC50 (S. aureus [1]; Table 5, S. aureus, 50% reduction of CFU/ml)?
The MBC50 was over 10 µM.

And the MBC (S. aureus [1]; [5])?
The MBC was over 10 µM.

Which results are given for “I: RVIEVVQGACRAIRHIPRRIRQGLERIL / II: RVIEVVQGACRAIRHIPRRIRQGLERIL (disulfide I:10-II:10) [bis-LLP1]”?
antibacterial activity (in words) (S. aureus [1]; S. aureus): higher than the parent LLP1; MBC50 (S. aureus [1]; [6]): 0.5; MBC (S. aureus [1]; [7]): 2 µM

What does the source list for RVIEVVQGACRAIRHIPRRIRQGLERIL [LLP1]?
reduction of viable bacteria counts relative to magainin 2 (S. aureus [1]; S. aureus, equal peptide concentrations): at least three orders of magnitude more than magainin 2; peptide concentration at and above which "complete" killing is observed (S. aureus [1]; S. aureus, one hour, zero CFU remaining per 100 μl, FIG. 1): ≥ 2.5 µM; MBC50 (S. aureus [1]; Table 4, peptide concentration (closest 2-fold dilution) reducing CFU/ml by 50%, in µM): 1-2; MBC (S. aureus [1]; Table 4, peptide concentration (closest 2-fold dilution) reducing CFU/ml by 99.9%, 1 hour): 2 to 4 µM; MBC50 (S. aureus [1]; Table 5, S. aureus, 50% reduction of CFU/ml, in µM): .31 to 1.3 µM; MBC (S. aureus [1]; [5]): 1.3 to 2.5 µM; MBC50 (S. aureus [1]; Table 6, truncated analogs, 50% reduction of CFU/ml, in µM): 1.25; MBC (S. aureus [1]; Table 6, truncated analogs, 99.9% reduction of CFU/ml): 2.5 µM; MBC50 (S. aureus [1]; [6]): 1-2; MBC (S. aureus [1]; [7]): 2 to 4 µM; reduction in viability within one minute (S. aureus [2]): 10,000 fold; bactericidal activity (in words) (S. marcescens): highly bactericidal; MBC50 (S. marcescens; [8]): .16 to .31 µM; MBC (S. marcescens; [9]): 0.31 to 1.3 µM; MBC50 ([3]; Table 5, E. faecalis Vancomycin-resistant, 50% reduction of CFU/ml): .31 µM; MBC ([3]; Table 5, E. faecalis Vancomycin-resistant, 99.9% reduction of CFU/ml): 1.3 to 2.5 µM; potency against vancomycin-resistant strain relative to susceptible strain of E. faecalis ([3]; comparison of strains): two-fold more potent; MBC50 [4, 8]: .63 to 1.3 µM; MBC [4, 9]: 1.3 to 2.5 µM; MBC50 (E. faecalis; [8]): 2.5 µM; MBC (E. faecalis; [9]): 2.5 to 5 µM; activity (in words) (P. aeruginosa; FIG. 3): more susceptible to LLP1; MBC50 (P. aeruginosa; [8]): 1.3 µM; MBC (P. aeruginosa; [9]): 2.5 µM

With YHELRDLLLIVTRIVELLGRE [LLP2A3] as the substance, how does the MBC50 (S. aureus [1]; Table 7, substitution analogs, 50% reduction of CFU/ml, in µM) read?
The MBC50 was over 32.

What about the MBC (S. aureus [1]; Table 7, substitution analogs, 99.9% reduction of CFU/ml) of the same substance?
Its MBC is over 32 µM.
